Among the data in PMC7058620 are binding values, retold here.

Protein sequences, listed by entry. Tags and fused reporters are not part of them. Residues count along the entry.
UniProt O14786, residues 22-923: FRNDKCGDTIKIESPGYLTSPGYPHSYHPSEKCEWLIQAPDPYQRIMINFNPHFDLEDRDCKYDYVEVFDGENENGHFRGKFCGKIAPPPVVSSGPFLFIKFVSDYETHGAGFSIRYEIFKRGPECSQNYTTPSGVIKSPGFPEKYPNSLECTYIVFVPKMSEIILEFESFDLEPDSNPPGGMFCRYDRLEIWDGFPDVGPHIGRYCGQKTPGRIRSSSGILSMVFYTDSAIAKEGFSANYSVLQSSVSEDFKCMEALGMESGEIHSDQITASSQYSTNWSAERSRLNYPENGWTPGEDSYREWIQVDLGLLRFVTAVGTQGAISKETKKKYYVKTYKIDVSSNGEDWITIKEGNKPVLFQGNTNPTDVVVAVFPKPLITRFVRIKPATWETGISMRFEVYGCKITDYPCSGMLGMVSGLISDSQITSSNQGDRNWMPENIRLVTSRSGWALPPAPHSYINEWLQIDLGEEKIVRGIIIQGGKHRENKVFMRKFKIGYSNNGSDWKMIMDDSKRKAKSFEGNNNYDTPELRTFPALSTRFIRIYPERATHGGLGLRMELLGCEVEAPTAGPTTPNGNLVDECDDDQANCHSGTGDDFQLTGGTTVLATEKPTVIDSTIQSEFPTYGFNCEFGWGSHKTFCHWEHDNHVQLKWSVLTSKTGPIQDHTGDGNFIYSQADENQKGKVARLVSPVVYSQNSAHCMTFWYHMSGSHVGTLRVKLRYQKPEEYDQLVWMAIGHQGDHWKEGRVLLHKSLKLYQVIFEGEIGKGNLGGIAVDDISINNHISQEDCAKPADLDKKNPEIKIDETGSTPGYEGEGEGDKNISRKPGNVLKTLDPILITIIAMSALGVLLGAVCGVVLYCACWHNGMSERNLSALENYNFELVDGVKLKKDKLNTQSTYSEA
UniProt P60953: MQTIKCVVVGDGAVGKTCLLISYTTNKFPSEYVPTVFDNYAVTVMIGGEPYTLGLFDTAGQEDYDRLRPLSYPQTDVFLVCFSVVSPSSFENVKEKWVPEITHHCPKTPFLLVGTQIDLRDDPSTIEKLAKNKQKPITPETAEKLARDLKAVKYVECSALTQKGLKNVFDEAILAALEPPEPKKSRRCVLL

The experiment deals with neuropilin-1 (NRP1) (human (endogenous in SW480/LS174T)) (UniProt O14786). The experiment can be described thus: co-IP; CRC cells with (+) or without (-) VEGF (50 ng/mL) treatment; which of the two was precipitated is not told.

These are yes or no findings as the source states them, for the method shown. Binding seen in cells or lysates may run through a third protein. Some entries that bind do so weakly or less than the wild type.

As for “Cdc42 (cell division cycle 42) (from UniProt P60953 1-191)”, the binding entry is recorded as “binds”.
